Reference: PMC6854577, “Quantitation of Thyroid Hormone Binding to Anti-Thyroxine Antibody Fab Fragment by Native Mass Spectrometry” (ACS Omega, 2019)

System: anti-T4 antibody Fab fragment
Experiment: Native MS initial ligand screening (approximate affinities, stoichiometry)
Type: binding, mouse
Conditions: 0.1 μM Fab, four to six ligand concentrations
Description: All mass spectrometric experiments were performed by using a 12-T Bruker solariX XR Fourier transform ion cyclotron resonance (FT-ICR) instrument (Bruker Daltonics, Bremen, Germany) equipped with an electrospray ionization (ESI) source (Apollo-II). Mass spectra were obtained in a positive ion mode, and the samples were directly infused to the ion source at a flow rate of 2 μL min^–1. Dry nitrogen was used as nebulizing (4.0 L min^–1) and drying (80 °C, 1.0 bar) gas. The ions were accumulated in the hexapole ion trap for 3.5 s and then transferred to the dynamically harmonized ICR cell (Paracell) for trapping, excitation, and detection. The time of flight was set to 3.5 ms. All other instrumental parameters were carefully adjusted to preserve noncovalent interactions in the gas phase. […] The mass spectra were externally calibrated by the ESI Tuning mix (part no. G2431A; Agilent Technologies, Santa Clara, CA). The mass spectra were acquired from m/z 1500 to 5000. The data acquisition was attained by ftmsControl 2.1 software and further processed and analyzed by DataAnalysis 4.2 SR1 software. All native MS experiments were performed in 20 mM aqueous ammonium acetate (pH 6.9) solution.
First, the approximate binding affinities of thyroid hormones and tetrahalogen bisphenols to anti-T4 Fab were determined via initial screening experiments (Figures S1–S7).

Row | SMILES | binding stoichiometry
1 | N[C@@H](Cc1ccc(Oc2ccc(O)c(I)c2)c(I)c1)C(=O)O [T2, 3,3′-diiodo-L-thyronine] | only 1:1 binding
2 | CC(C)(c1cc(Cl)c(O)c(Cl)c1)c1cc(Cl)c(O)c(Cl)c1 [TCB, tetrachlorobisphenol-A] | binding of the second ligand at the highest ligand concentrations was observed
3 | N[C@@H](Cc1cc(I)c(Oc2cc(I)c(O)c(I)c2)c(I)c1)C(=O)O [T4, L-thyroxine] | only 1:1 binding
4 | N[C@@H](Cc1ccc(Oc2ccc(O)cc2)cc1)C(=O)O [T0, L-thyronine] | binding of the second ligand at the highest ligand concentrations was observed
5 | CC(C)(c1cc(Br)c(O)c(Br)c1)c1cc(Br)c(O)c(Br)c1 [TBB, tetrabromobisphenol-A] | only 1:1 binding
6 | N[C@@H](Cc1cc(I)c(Oc2ccc(O)c(I)c2)c(I)c1)C(=O)O [T3, 3,3′,5-triiodo-L-thyronine] | only 1:1 binding
7 | CC(C)(c1cc(I)c(O)c(I)c1)c1cc(I)c(O)c(I)c1 [TIB, tetraiodobisphenol-A] | only 1:1 binding
